Test results from publication doi:10.1101/2025.04.04.647281.
The exact form of at least one protein or probe is not confirmed. Where cells or extracts were used, other partners may take part. For part of these data: At least one verdict rests on a figure or table, not on a statement of the authors.

Sequences of proteins named here, by UniProt entry; tags and fusion partners are left off. A change or cut given only in a name is not applied to a line headed by its entry.
UniProt Q8T6B9: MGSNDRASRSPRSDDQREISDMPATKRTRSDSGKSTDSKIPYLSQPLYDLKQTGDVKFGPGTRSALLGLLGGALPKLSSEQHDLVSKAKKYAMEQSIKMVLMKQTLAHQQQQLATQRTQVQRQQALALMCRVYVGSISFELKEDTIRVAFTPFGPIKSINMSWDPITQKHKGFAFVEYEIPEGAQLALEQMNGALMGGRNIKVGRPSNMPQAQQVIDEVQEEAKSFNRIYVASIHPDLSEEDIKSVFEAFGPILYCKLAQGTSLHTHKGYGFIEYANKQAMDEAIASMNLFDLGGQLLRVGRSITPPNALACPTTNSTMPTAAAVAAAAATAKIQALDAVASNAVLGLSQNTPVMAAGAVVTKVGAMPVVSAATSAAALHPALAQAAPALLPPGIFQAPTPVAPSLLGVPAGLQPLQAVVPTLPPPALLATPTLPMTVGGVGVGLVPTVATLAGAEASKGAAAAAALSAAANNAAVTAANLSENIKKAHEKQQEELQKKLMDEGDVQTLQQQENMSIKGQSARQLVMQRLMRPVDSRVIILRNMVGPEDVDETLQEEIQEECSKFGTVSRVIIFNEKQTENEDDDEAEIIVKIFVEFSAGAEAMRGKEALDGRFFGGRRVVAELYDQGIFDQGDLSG
UniProt Q05783: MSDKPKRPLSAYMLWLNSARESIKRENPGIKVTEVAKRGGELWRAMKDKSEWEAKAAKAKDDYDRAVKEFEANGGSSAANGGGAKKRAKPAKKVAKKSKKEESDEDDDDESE
UniProt Q9VNS0: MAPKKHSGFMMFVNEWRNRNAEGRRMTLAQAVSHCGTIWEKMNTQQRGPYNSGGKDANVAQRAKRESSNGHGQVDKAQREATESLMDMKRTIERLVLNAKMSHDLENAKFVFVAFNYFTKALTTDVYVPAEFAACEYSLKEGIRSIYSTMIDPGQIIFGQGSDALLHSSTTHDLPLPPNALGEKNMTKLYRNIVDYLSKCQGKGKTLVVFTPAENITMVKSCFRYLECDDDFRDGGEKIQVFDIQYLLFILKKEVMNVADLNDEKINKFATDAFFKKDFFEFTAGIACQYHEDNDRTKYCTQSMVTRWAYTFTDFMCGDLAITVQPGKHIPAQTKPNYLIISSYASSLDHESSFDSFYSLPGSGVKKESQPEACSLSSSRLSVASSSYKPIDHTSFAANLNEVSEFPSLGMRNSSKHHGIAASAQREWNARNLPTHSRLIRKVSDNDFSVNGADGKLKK
UniProt P13469: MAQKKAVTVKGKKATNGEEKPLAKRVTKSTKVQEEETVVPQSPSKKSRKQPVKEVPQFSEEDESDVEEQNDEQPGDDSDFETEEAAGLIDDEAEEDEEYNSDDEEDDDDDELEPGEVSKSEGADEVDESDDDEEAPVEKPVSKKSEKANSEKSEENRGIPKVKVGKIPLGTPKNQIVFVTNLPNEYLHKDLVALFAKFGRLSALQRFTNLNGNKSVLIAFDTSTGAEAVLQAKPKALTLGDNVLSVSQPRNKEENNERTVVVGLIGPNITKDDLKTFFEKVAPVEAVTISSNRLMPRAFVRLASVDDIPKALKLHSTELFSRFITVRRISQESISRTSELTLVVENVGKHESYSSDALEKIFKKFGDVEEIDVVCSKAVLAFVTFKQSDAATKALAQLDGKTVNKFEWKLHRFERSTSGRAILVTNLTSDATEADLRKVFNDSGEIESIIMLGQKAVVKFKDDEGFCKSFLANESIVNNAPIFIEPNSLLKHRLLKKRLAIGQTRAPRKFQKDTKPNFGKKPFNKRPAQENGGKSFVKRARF
UniProt Q9VKM1: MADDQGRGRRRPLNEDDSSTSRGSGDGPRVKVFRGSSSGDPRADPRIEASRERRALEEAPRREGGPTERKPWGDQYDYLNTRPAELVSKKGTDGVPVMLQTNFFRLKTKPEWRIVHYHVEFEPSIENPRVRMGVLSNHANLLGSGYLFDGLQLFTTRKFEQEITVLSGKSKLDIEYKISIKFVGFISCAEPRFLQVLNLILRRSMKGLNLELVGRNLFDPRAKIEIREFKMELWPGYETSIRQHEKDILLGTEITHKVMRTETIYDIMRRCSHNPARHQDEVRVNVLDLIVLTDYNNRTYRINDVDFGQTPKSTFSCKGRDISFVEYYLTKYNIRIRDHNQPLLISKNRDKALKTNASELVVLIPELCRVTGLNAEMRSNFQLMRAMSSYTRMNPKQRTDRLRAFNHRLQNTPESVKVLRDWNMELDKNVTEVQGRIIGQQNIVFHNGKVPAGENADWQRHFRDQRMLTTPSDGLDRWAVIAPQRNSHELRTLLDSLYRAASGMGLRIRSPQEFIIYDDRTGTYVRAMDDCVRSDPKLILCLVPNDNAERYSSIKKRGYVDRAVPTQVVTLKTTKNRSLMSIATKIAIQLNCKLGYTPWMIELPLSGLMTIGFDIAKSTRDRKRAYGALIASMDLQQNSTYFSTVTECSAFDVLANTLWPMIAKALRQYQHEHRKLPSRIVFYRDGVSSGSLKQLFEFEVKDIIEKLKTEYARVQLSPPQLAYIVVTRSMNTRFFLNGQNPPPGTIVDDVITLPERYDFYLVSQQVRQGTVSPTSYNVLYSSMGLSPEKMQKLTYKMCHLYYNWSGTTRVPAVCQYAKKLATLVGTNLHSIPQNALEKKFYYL
UniProt P21187, whole entry: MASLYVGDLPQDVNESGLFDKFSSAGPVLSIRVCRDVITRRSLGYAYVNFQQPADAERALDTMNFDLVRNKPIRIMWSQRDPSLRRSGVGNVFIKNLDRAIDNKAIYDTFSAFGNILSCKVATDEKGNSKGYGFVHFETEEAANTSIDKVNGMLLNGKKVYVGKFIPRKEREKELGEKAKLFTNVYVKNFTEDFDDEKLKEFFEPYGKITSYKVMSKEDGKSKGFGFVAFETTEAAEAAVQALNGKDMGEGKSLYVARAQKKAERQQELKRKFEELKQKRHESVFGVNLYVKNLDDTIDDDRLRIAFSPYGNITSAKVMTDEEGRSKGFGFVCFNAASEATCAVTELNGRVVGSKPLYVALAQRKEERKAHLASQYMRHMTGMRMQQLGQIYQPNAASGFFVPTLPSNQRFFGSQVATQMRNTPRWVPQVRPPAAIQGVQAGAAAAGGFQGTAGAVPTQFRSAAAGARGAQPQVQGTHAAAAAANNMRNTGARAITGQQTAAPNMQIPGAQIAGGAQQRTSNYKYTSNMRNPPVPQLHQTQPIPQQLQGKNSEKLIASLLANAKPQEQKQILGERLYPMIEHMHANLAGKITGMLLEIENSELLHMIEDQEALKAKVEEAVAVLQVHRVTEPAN
UniProt P49905: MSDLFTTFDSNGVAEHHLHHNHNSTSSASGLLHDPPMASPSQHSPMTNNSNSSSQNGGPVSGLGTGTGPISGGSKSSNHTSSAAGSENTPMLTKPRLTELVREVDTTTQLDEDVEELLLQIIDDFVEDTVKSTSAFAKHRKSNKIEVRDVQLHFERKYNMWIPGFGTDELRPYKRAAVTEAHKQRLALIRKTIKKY
UniProt P49847: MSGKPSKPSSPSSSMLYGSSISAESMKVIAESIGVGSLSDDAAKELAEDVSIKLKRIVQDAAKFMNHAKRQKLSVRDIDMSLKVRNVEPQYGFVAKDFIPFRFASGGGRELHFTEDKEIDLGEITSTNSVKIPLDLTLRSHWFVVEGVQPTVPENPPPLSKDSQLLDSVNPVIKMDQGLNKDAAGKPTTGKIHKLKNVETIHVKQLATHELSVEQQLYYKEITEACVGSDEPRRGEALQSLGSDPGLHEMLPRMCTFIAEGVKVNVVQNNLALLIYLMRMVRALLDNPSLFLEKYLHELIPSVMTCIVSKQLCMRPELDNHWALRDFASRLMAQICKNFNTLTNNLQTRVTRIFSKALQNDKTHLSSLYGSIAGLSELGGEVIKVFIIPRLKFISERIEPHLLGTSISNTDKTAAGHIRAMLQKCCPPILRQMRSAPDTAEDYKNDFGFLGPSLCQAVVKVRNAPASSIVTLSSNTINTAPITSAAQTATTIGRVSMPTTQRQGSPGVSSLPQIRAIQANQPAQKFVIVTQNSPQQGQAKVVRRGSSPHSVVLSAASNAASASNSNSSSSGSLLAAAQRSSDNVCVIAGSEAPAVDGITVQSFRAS
UniProt Q9VIP9: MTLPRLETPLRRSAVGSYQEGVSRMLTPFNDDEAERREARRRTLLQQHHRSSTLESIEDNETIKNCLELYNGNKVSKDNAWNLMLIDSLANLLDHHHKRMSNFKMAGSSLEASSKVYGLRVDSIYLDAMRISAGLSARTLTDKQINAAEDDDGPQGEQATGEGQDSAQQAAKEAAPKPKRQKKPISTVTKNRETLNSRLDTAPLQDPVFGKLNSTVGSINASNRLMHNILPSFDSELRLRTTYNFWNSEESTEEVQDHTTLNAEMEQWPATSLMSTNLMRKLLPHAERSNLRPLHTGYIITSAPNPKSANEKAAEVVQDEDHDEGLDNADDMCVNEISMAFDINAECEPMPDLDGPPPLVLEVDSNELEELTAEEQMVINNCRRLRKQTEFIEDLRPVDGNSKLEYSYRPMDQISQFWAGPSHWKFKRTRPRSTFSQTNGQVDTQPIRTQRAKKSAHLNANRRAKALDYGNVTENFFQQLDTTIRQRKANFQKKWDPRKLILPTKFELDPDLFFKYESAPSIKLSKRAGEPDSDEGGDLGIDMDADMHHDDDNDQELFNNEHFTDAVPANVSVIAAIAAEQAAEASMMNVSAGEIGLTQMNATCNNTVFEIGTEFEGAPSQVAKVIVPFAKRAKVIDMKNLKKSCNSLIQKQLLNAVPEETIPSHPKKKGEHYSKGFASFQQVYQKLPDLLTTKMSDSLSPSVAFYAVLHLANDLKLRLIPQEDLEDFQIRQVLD
UniProt Q8T8R1: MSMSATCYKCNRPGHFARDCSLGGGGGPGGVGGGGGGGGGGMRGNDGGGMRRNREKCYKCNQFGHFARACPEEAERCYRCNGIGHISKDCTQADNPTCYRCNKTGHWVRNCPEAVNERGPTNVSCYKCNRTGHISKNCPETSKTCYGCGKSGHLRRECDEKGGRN
UniProt P15348: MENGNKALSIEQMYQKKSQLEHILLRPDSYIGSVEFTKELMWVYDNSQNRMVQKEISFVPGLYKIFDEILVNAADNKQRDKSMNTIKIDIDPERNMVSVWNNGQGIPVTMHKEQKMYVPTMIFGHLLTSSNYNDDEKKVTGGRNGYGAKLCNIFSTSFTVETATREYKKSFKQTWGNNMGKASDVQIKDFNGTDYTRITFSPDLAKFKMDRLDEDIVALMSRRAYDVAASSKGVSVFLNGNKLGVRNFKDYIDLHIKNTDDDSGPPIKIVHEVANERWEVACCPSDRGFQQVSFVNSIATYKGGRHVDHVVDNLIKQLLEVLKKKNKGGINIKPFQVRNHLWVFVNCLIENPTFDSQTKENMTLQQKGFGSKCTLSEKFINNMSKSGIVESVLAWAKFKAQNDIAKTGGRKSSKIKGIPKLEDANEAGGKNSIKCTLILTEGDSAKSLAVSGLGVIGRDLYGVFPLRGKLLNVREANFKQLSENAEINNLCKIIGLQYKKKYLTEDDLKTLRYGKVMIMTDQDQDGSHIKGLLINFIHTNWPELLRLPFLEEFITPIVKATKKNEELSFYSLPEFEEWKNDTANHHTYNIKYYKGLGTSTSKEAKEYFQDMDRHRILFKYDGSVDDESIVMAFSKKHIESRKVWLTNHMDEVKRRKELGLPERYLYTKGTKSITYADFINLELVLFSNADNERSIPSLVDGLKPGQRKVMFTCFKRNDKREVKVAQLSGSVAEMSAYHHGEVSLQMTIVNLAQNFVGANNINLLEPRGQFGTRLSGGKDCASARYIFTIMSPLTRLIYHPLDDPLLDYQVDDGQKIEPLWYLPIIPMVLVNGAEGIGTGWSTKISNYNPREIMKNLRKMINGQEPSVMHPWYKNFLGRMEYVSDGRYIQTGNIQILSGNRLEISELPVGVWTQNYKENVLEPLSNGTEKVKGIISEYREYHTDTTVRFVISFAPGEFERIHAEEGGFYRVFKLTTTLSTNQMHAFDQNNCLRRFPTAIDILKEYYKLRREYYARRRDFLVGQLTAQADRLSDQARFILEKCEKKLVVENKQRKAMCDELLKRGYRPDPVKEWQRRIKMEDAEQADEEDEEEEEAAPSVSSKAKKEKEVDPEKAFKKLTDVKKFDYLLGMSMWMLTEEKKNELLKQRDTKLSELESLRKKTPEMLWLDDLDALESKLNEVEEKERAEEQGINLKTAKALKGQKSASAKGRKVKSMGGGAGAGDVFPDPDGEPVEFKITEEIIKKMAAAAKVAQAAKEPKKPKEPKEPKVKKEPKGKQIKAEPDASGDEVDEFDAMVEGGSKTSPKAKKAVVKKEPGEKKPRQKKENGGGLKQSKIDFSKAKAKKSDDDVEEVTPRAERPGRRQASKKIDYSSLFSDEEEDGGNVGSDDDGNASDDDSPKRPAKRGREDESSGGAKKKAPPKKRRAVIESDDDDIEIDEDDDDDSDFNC

What was measured:
Assay in all cases: pull-down MS
Conditions in all cases: azide at one end (5' or 3'), PEG23-bead linked; protein in an extract
[1] = target: Half pint (Drosophila melanogaster) (UniProt Q8T6B9)
[2] = target: Hmg-2 (Drosophila melanogaster) (UniProt Q9W2K8)
[3] = target: HmgD (Drosophila melanogaster) (UniProt Q05783)
[4] = target: Host cell factor (Drosophila melanogaster) (UniProt Q9V4C8)
[5] = target: Larp4B (Drosophila melanogaster) (UniProt Q9I7T7)
[6] = target: Mad (Drosophila melanogaster) (UniProt P42003)
[7] = target: Maelstrom (Drosophila melanogaster) (UniProt Q9VNS0)
[8] = target: Modulo (Drosophila melanogaster) (UniProt P13469)
[9] = target: Myeloid leukemia factor (Drosophila melanogaster) (UniProt Q9NKV0)
[10] = target: P-element somatic inhibitor (Drosophila melanogaster) (UniProt A1ZAK9)
[11] = target: Piwi (Drosophila melanogaster) (UniProt Q9VKM1)
[12] = target: Poly(A)-binding protein (Drosophila melanogaster) (UniProt P21187)
[13] = target: TAF12 (Drosophila melanogaster) (UniProt P49905)
[14] = target: TAF5 (Drosophila melanogaster) (UniProt P49846)
[15] = target: TAF6 (Drosophila melanogaster) (UniProt P49847)
[16] = target: ATP-dependent DNA helicase RecQ4 (Drosophila melanogaster) (UniProt Q9VSE6)
[17] = target: Barren (Drosophila melanogaster) (UniProt Q9VIP9)
[18] = target: CNBP (Drosophila melanogaster) (UniProt Q8T8R1)
[19] = target: CPSF160 (Drosophila melanogaster) (UniProt Q9V726)
[20] = target: Drosocross 3 (Drosophila melanogaster) (UniProt Q9VST0)
[21] = target: Net (Drosophila melanogaster) (UniProt Q9VPI8)
[22] = target: Topoisomerase II (Drosophila melanogaster) (UniProt P15348)

Measured: binding result

GAGCGCGGCAGTCTGGTACGATAGAAATTTTATTTAAGCCACAG (double strand) [P31/P32 TATA promoter]
not listed: [16] | [17] | [18] | [19] | [20] | [21] | [22]
binds: all other assays above

GAAGCTTTTTGTTGTTTTTGCAGCTGCCGTTTTCGCCCTT (double strand) [P1/P2 upstream enhancer cluster]
not listed: [7]
binds: all other assays above
